According to article doi:10.1101/2025.04.21.649841:
Results are given in words; binding and its absence hold for the method and conditions named. Binding seen in cells or lysates may run through a third protein. Some entries that bind do so weakly or less than the wild type. Sequences can lack the tags named with a protein.

Chains of the proteins cited; added tags and fusions are not shown.
UniProt O60934: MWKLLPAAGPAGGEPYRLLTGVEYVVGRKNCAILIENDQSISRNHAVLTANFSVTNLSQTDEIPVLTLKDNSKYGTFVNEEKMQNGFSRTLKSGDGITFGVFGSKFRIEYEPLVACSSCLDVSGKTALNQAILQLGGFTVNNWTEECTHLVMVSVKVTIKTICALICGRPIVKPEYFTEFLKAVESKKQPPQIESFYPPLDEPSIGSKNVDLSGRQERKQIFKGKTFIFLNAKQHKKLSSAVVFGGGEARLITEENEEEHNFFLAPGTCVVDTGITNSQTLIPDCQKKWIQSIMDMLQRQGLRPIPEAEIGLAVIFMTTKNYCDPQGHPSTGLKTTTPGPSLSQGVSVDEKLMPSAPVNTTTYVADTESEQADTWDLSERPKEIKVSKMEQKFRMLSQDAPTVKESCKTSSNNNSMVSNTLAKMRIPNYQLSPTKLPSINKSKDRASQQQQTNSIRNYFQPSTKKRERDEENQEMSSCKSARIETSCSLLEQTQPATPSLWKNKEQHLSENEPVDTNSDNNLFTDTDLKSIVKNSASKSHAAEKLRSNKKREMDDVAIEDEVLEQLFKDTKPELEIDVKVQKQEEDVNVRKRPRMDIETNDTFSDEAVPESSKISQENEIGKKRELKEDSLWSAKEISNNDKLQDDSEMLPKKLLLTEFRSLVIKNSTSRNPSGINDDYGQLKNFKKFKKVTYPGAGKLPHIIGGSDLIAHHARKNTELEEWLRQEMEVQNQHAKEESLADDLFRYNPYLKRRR

Target: T1, HA-tagged Treacle (pcDNA4-TO-strep-HA-GFP-Treacle) (UniProt Q13428)
T1 sequence: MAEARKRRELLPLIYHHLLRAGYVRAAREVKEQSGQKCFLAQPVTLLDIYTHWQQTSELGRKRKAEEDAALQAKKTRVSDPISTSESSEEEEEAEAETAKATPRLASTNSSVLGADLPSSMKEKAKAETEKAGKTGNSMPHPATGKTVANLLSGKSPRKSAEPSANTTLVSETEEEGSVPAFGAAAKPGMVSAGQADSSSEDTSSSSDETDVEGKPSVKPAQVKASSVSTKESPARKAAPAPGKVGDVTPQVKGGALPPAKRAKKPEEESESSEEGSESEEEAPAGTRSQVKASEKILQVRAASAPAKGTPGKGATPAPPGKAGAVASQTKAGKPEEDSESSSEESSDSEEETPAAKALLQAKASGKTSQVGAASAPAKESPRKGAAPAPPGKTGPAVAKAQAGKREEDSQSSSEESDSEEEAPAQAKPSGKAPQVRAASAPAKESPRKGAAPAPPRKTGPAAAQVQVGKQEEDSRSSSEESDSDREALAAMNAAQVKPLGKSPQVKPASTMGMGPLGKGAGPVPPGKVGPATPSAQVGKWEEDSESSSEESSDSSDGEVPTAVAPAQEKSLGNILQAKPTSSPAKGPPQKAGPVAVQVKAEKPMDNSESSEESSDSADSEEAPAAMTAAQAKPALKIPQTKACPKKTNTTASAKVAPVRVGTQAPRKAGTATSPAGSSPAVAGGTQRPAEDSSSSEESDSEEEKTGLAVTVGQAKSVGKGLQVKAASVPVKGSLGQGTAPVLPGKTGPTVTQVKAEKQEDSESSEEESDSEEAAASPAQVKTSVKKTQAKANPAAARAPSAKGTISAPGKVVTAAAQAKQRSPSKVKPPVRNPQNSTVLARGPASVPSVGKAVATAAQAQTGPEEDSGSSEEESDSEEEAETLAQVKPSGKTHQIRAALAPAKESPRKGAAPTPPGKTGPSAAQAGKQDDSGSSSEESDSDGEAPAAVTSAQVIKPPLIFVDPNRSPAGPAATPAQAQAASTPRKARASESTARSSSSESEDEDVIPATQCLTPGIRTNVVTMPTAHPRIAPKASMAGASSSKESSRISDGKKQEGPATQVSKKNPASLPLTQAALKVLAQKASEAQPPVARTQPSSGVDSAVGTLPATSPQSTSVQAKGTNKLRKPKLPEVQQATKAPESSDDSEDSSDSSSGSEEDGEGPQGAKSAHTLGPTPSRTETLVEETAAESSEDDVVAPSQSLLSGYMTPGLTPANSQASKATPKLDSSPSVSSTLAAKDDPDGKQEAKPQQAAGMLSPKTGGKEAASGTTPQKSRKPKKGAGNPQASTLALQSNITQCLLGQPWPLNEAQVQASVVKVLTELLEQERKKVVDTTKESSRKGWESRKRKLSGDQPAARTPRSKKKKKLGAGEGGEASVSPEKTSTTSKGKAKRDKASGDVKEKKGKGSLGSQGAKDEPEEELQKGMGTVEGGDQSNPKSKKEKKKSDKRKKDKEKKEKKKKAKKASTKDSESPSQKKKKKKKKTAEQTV
Test: co-IP

binding: binds
Substance: NBS1 (from UniProt O60934 1-754)
